No constants are given. Whether binding was seen depends on the method and setting. In cells and extracts the contact can be indirect. Here binding means that the protein was enriched with, or labelled near, the bait; the list need not be complete. Sequences can lack the tags named with a protein. One block for each binder: values may come before it.
Legend:
[1] = target: N-terminally 3xFLAG-tagged GPER1 fused to APEX2 (UniProt Q99527); experiment: proximity labelling; F-GPER1-APEX2 in transfected HEK293T cells; 500 µM biotinyl tyramide 45 min, 1 mM H2O2 1 min, without or with 100 nM E2 for 10 min; RIPA lysate, streptavidin magnetic beads, LC-MS/MS; compared with F-APEX2-NES; 3 biological replicates
[2] = target: N-terminally 3xFLAG-tagged GPER1 (G protein-coupled estrogen receptor 1) (UniProt Q99527); experiment: affinity purification with mass spectrometry; F-GPER1 or F-GPER1-APEX2 in transfected HEK293T; lysis buffer 10 mM Tris-HCl pH 7.5, 50 mM NaCl, 1 mM EDTA, 10% glycerol, 10 mM Na-molybdate; anti-FLAG IP overnight at 4 °C, Protein G Dynabeads, mouse IgG as control; LC-MS/MS
[3] = target: N-terminally 3xFLAG-tagged GPER1 fused to APEX2 (UniProt Q99527); experiment: as above

The chains behind the UniProt entries cited, without tags or fusion partners.
UniProt Q99527: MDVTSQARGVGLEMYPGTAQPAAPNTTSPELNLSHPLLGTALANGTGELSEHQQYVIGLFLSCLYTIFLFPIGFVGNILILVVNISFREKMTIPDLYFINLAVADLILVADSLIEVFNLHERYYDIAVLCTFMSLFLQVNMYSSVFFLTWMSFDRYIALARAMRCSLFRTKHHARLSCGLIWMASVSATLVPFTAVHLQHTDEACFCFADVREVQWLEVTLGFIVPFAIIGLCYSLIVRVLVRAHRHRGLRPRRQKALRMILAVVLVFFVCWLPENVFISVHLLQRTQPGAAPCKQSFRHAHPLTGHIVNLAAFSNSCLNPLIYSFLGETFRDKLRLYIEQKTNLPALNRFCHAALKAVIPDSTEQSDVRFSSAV

- binding [1]: binds
- binding [2]: binds
- binding [3]: binds
B1: neutral α-glucosidase AB (GANAB), catalytic subunit of α-glucosidase II (enzyme, UniProt Q14697 29-944)
chain: ITLAVDRSNFKTCEESSFCKRQRSIRPGLSPYRALLDSLQLGPDSLTVHLIHEVTKVLLVLELQGLQKNMTRFRIDELEPRRPRYRVPDVLVADPPIARLSVSGRDENSVELTMAEGPYKIILTARPFRLDLLEDRSLLLSVNARGLLEFEHQRAPRVSQGSKDPAEGDGAQPEETPRDGDKPEETQGKAEKDEPGAWEETFKTHSDSKPYGPMSVGLDFSLPGMEHVYGIPEHADNLRLKVTEGGEPYRLYNLDVFQYELYNPMALYGSVPVLLAHNPHRDLGIFWLNAAETWVDISSNTAGKTLFGKMMDYLQGSGETPQTDVRWMSETGIIDVFLLLGPSISDVFRQYASLTGTQALPPLFSLGYHQSRWNYRDEADVLEVDQGFDDHNLPCDVIWLDIEHADGKRYFTWDPSRFPQPRTMLERLASKRRKLVAIVDPHIKVDSGYRVHEELRNLGLYVKTRDGSDYEGWCWPGSAGYPDFTNPTMRAWWANMFSYDNYEGSAPNLFVWNDMNEPSVFNGPEVTMLKDAQHYGGWEHRDVHNIYGLYVHMATADGLRQRSGGMERPFVLARAFFAGSQRFGAVWTGDNTAEWDHLKISIPMCLSLGLVGLSFCGADVGGFFKNPEPELLVRWYQMGAYQPFFRAHAHLDTGRREPWLLPSQHNDIIRDALGQRYSLLPFWYTLLYQAHREGIPVMRPLWVQYPQDVTTFNIDDQYLLGDALLVHPVSDSGAHGVQVYLPGQGEVWYDIQSYQKHHGPQTLYLPVTLSSIPVFQRGGTIVPRWMRVRRSSECMKDDPITLFVALSPQGTAQGELFLDDGHTFNYQTRQEFLLRRFSFSGNTLVSSSADPEGHFETPIWIERVVIIGAGKPAAVVLQTKGSPESRLSFQHDPETSVLVLRKPGINVASDWSIHLR

- binding [1]: binds
- binding [2]: binds
- binding [3]: binds
B2: CLPTM1 (protein, UniProt O96005 1-669)
chain: MAAAQEADGARSAVVAAGGGSSGQVTSNGSIGRDPPAETQPQNPPAQPAPNAWQVIKGVLFRIFIIWAISSWFRRGPAPQDQAGPGGAPRVASRNLFPKDTLMNLHVYISEHEHFTDFNATSALFWEQHDLVYGDWTSGENSDGCYEHFAELDIPQSVQQNGSIYIHVYFTKSGFHPDPRQKALYRRLATVHMSRMINKYKRRRFQKTKNLLTGETEADPEMIKRAEDYGPVEVISHWHPNITINIVDDHTPWVKGSVPPPLDQYVKFDAVSGDYYPIIYFNDYWNLQKDYYPINESLASLPLRVSFCPLSLWRWQLYAAQSTKSPWNFLGDELYEQSDEEQDSVKVALLETNPYLLALTIIVSIVHSVFEFLAFKNDIQFWNSRQSLEGLSVRSVFFGVFQSFVVLLYILDNETNFVVQVSVFIGVLIDLWKITKVMDVRLDREHRVAGIFPRLSFKDKSTYIESSTKVYDDMAFRYLSWILFPLLGCYAVYSLLYLEHKGWYSWVLSMLYGFLLTFGFITMTPQLFINYKLKSVAHLPWRMLTYKALNTFIDDLFAFVIKMPVMYRIGCLRDDVVFFIYLYQRWIYRVDPTRVNEFGMSGEDPTAAAPVAEVPTAAGALTPTPAPTTTTATREEASTSLPTKPTQGASSASEPQEAPPKPAEDKKKD
